Measured values published in PubChem BioAssay AID1671190 (National Center for Advancing Translational Sciences (NCATS), 2021).
Screen size: about 580,000 compounds; about 6,100 (1.1%) were called active. This list was built around the results that the source calls inconclusive (neither active nor inactive); the mix of calls is not that of the screen. Calls follow the shape of the dose curve; as a rule, active = well fitted inhibition curve with a large enough effect; inconclusive = small, poorly fitted or top-dose-only effect, or another doubt; inactive = no such curve, though single readings can be large or run the other way. Potencies of inconclusive entries are doubtful fits and often do not repeat.
% is scaled to controls: 0 for no effect and ±100 for the full control effect; potency is read from the fitted curve at half-maximal effect.

By UniProt entry, the sequences of proteins in these tests, tags left out. Where a name states a change or a piece, a line headed by the entry shows the natural chain unless it says otherwise.
UniProt P18054: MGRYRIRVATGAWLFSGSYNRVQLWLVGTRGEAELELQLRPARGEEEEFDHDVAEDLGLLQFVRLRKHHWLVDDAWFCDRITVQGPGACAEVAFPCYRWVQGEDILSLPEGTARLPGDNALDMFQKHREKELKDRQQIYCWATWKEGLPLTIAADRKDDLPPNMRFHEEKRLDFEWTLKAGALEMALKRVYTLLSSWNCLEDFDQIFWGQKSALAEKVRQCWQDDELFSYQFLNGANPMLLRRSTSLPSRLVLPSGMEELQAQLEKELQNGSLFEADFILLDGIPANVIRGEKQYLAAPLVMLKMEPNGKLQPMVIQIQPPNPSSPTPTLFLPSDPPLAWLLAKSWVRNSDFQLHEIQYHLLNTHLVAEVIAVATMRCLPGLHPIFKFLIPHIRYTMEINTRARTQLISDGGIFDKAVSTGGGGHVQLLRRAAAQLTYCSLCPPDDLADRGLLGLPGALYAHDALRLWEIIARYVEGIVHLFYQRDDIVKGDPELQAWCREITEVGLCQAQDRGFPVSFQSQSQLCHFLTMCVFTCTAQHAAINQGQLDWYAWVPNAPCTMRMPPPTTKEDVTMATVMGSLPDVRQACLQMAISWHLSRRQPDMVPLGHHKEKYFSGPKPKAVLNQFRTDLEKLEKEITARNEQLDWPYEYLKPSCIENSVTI

What follows are compounds tested against Polyunsaturated fatty acid lipoxygenase ALOX12 (Homo sapiens) (UniProt P18054) (assay: Primary qHTS assay for inhibitors of human arachidonate 12S-lipoxygenase (ALOX12): Round 2). Settings: purified 12hLO, xylenol orange hydroperoxide absorbance; activity change, negative = inhibition: at 108 µM (top of the series) unless noted.
Summary of the method: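 Purified human 12hLO at 150 nM in 25 mM Hepes, 0.01% Triton X-100, pH 7.0, preincubated 15 min at room temperature with compound. Reaction started with 40 uM arachidonic acid, 30 min at room temperature. Hydroperoxide measured by Fe-xylenol orange, 573/405 nm absorbance ratio.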
In the case of `Cc1ccn2cc(-c3ccc(NS(=O)(=O)c4ccc5c(c4)OCCO5)cc3)nc2n1`, the Potency is reported as inconclusive: 141 µM [inhibitor, single point]. In the case of `NCCn1cc(-c2cc(Cl)c(N)c(Cl)c2)ncc1=O`, the Potency is reported as inconclusive: 56.2 µM [inhibitor, partial curve, poor fit]. In the case of `N#Cc1ccc(NC(=O)c2nn(-c3ccccc3)c(=O)c3ccccc23)cc1`, the Potency is reported as inconclusive: 1.26 µM [inhibitor, full curve, poor fit]. In the case of `Cc1ccccc1Cn1cc(-c2ccncc2)cc1C(=O)NC(C)c1ccccn1` (stereo not drawn), the Potency is reported as “inactive”. `NNC(=S)Nc1c(F)cc(F)cc1Br` was tested, and the Potency was inconclusive: 112 µM [inhibitor, single point]. `Cc1ccc(NCc2ccc(O)c3ncccc23)cc1` was tested, and the Potency was active: 3.98 µM. `C/C(=N\Nc1ccccn1)c1ccc(Br)s1` was tested, and the Potency was inconclusive: 100 µM [inhibitor, single point]. For `C=C(C)Cn1c(SCC(=O)OCc2ccccc2)nc2c1c(=O)[nH]c(=O)n2C`, the Potency was “inactive”. For `COc1cccc(CCN2CCC(CNS(=O)(=O)c3cc(-c4cc(C)no4)ccc3C)CC2)c1`, the Potency was inconclusive: 22.4 µM [inhibitor, partial curve, poor fit]. `CC(=O)NC[C@H]1O[C@@H](Cc2nc(-c3ccc(OC(F)(F)F)cc3)no2)[C@H](O)[C@@H]1O` was tested, and the Potency was inconclusive: 35.5 µM [inhibitor, full curve, poor fit]. `CCc1ccc(CNC(=O)c2ccc3c(c2)NC(=O)C(N2CCOCC2)S3)cc1` (stereo not drawn) was tested, and the Potency was “inactive”. `Oc1ccccc1CN1CCNc2cnc(-c3ccccc3)cc2C1` was tested, and the Potency was inconclusive: 31.6 µM [inhibitor, partial curve, poor fit]. With `C=CCC[C@H](Cc1ccc(F)cc1)C(=O)OC[C@@H]1CCCN1C(=O)[C@@H](CC=C)CC(=O)NCCO` the Potency was “inactive”. `Cc1c(C(=O)N(C)Cc2ccccc2)oc2ccc(S(=O)(=O)N3CCCC3)cc12` was tested, and the Potency was “inactive”. For `CCC(=O)Nc1cccc(-c2nnc(SCC(=O)c3ccccc3)n2C)c1`, the Potency was inconclusive: 39.8 µM [inhibitor, partial curve, poor fit]. With `CN(Cc1cccc(F)c1)CC(O)COCc1ccccc1Cl` (stereo not drawn) the Potency was inconclusive: 1.41 µM [inhibitor, full curve, poor fit]. In the case of `Brc1cccc(-c2nnc3sc(CN4CCC5(CC4)OCCO5)cn23)c1`, the Potency is reported as “inactive”. `CCOc1ccc(CNC(=O)CCC(=O)N2CC3CCCN3c3ccccc32)cc1` (stereo not drawn) was tested, and the Potency was inconclusive: 89.1 µM [inhibitor, partial curve, poor fit]. For `O=C1CO[C@H]2CCN(Cc3ccccc3F)CC[C@@H]2N1c1ccccc1`, the Potency was inconclusive: 4.47 µM [inhibitor, full curve, poor fit]. In the case of `O=C(c1ccccc1)N1CCC(N2C(=O)C(OCC3CC3)C23CCCCC3)CC1` (stereo not drawn), the Potency is reported as “inactive”. In the case of `CN(C(=O)CN1CCN(c2cc(-c3ccc(-c4ccccc4)cc3)ncn2)CC1)c1ccccc1`, the Potency is reported as active: 44.7 µM. For `Cc1cccc(C)c1N1CCN(C(=O)Nc2ccc3c(c2)OCCO3)CC1`, the Potency was inconclusive: 28.2 µM [inhibitor, partial curve, poor fit]. For `CN(CCc1noc(COc2ccc(F)cc2F)n1)C(=O)c1ccccc1C(F)(F)F`, the Potency was inconclusive: 100 µM [inhibitor, single point]. `O=C(CCc1ccccc1)NCCCN1CCOCC1` was tested, and the Potency was inconclusive: 100 µM [inhibitor, single point]. `CCOC(=O)C1=CN(CC(=O)NCc2ccc(Cl)cc2)S(=O)(=O)N=C1C` was tested, and the Potency was inconclusive: 11.2 µM [inhibitor, full curve, poor fit]. For `O=C(Nc1ccc(S(=O)(=O)Nc2ccccn2)cc1)c1cccc(Br)c1`, the Potency was “inactive”. With `O=C(c1ccccc1O)N1CCN(S(=O)(=O)c2ccc3ccccc3c2)CC1` the Potency was inconclusive: 89.1 µM [inhibitor, partial curve, poor fit]. With `CC(C)(CNc1ccc([N+](=O)[O-])cc1C#N)N1CCOCC1` the Potency was “inactive”. In the case of `O=C(Nc1cccc(F)c1)N1CCC2(CC1)CCN(C(=O)c1cnccn1)CC2`, the Potency is reported as “inactive”. With `COc1ccc(-c2[nH]ncc2CNC(=O)C(c2ccccc2F)N(C)C)cc1` (stereo not drawn) the Potency was “inactive”. For `CC(C(=O)NC1CCCCC1)N(C)CC(=O)Nc1ccc(Cl)c(C(F)(F)F)c1` (stereo not drawn), the Potency was “inactive”. With `Cc1ccc(NC(=S)Nc2cccc3cnccc23)cc1` the Potency was “inactive”. With `COCCNC(=S)N(CCc1c(C)[nH]c2ccc(C)cc12)Cc1cccnc1` the Potency was inconclusive: 89.1 µM [inhibitor, partial curve, poor fit]. For `CCCCc1c(-c2ccccc2OC)ncn1Cc1ccccc1C`, the Potency was active: 28.2 µM. In the case of `CC(CN1CCCC1)OC(=O)c1ccc(C(C)(C)C)cc1` (stereo not drawn), the Potency is reported as inconclusive: 31.6 µM [inhibitor, partial curve]. `O=C(COC(=O)c1ccc(F)c(S(=O)(=O)N2CCOCC2)c1)NCc1ccc(Cl)cc1` was tested, and the Potency was inconclusive: 141 µM [inhibitor, single point]. In the case of `COc1ccc(C2=C(C)CC(c3ccccc3)NC2=O)cc1OC` (stereo not drawn), the Potency is reported as “inactive”. `COCCNS(=O)(=O)c1cccc2c1CN(C(=O)CCn1cncn1)CC2` was tested, and the Potency was “inactive”. `O=C1CN(CC(=O)c2c[nH]c3ccccc23)CCN1` was tested, and the activity change, negative = inhibition was inconclusive: -33.8% [inhibitor]. For `COc1cc(NC(=O)CSc2nccc(C)n2)c(C(=O)O)cc1OC`, the Potency was “inactive”. `Cn1c(=O)c2c(ncn2CC(=O)OCC(=O)c2ccc(Cl)cc2)n(C)c1=O` was tested, and the Potency was inconclusive: 100 µM [inhibitor, partial curve, poor fit]. In the case of `CCOc1ccc2nc(NC(=O)CSc3cn[nH]n3)sc2c1`, the Potency is reported as inconclusive: 39.8 µM [inhibitor, single point]. For `CCOC(=O)c1c(-c2ccsc2)csc1N`, the activity change, negative = inhibition was inconclusive: -34.6% [inhibitor]. With `Cc1cc(NC(=O)CCC(=O)N(c2ccc(C)c(F)c2)C(C(=O)NC2CCCC2)c2ccco2)no1` (stereo not drawn) the Potency was inconclusive: 89.1 µM [inhibitor, single point]. `CN(CC(=O)NCCC#N)Cc1ccc(C(C)(C)C)cc1` was tested, and the Potency was “inactive”. `CCCNc1nc2ccccc2nc1C(=O)Nc1cc(OC)ccc1OC` was tested, and the Potency was inconclusive: 31.6 µM [inhibitor, single point]. `CCOC(=O)CSCC(=O)NCc1cccs1` was tested, and the Potency was “inactive”. With `O=c1[nH]c(=S)[nH]c2c1[C@H](C1CC1)O[C@H](CCc1ccccc1)C2` the Potency was inconclusive: 39.8 µM [inhibitor, full curve, poor fit]. In the case of `C=C1C[C@@]23CCC4[C@@](C)(CCC[C@@]4(C)C(=O)OC)C2CC[C@]1(OC(C)=O)C3` (stereo partly drawn), the Potency is reported as “inactive”. With `CC(=O)NC(c1ccc(F)c(F)c1)c1nc(-c2ccc3c(c2)OCO3)cs1` (stereo not drawn) the Potency was inconclusive: 112 µM [inhibitor, single point]. In the case of `CC(NC(=O)C1CCCCC1)c1ccc(NC(=O)C2CC2)cc1` (stereo not drawn), the Potency is reported as inconclusive: 44.7 µM [inhibitor, partial curve, poor fit]. In the case of `CCc1cccc(C)c1NC(=O)Cn1ccn2nc(-c3ccc(F)cc3)c(CO)c2c1=O`, the Potency is reported as inconclusive: 89.1 µM [inhibitor, single point]. In the case of `CC(C)=CCN1CCC(n2nccc2NC(=O)c2ccccc2Cl)CC1`, the Potency is reported as “inactive”. In the case of `CCN(CC)S(=O)(=O)c1cccc(C(=O)Nc2ccc(S(=O)(=O)NC3=NCCCCC3)cc2)c1`, the Potency is reported as active: 50.1 µM. `COCCNC(=O)COC(=O)c1cc(-c2ccc(OC)cc2)nc2ccccc12` was tested, and the Potency was inconclusive: 44.7 µM [inhibitor, partial curve, poor fit]. For `CCN(CC)CCCNc1oc(/C=C/c2ccccc2OC)nc1C#N`, the Potency was inconclusive: 89.1 µM [inhibitor, single point]. For `COc1ccc(N/N=C(/C(N)=O)C2=NC(C)(C)Cc3ccccc32)cc1`, the Potency was inconclusive: 126 µM [inhibitor, partial curve, poor fit]. For `Clc1ccc(-n2cc(-c3ccccc3)cc2-c2ccccc2)cc1`, the Potency was inconclusive: 100 µM [inhibitor, partial curve, poor fit]. `O=C(O)C1CCc2nnc(C3CCCN(C(=O)c4ccccc4)C3)n21` (stereo not drawn) was tested, and the Potency was inconclusive: 79.4 µM [inhibitor, partial curve, poor fit]. In the case of `COc1ccc(OC)c(S(=O)(=O)Nc2cc3c(cc2N2CCCC2)n(C)c(=O)c(=O)n3C)c1`, the Potency is reported as inconclusive: 39.8 µM [inhibitor, partial curve, poor fit]. For `Cc1ccc(-n2nc3c(=O)n(CCCC(=O)NCCc4ccccc4)nc(C)c3c2C)cc1`, the Potency was inconclusive: 15.8 µM [inhibitor, partial curve, poor fit]. `CCN1CCN(CC(=O)Nc2nc3ccc(OC)cc3s2)CC1` was tested, and the Potency was inconclusive: 0.282 µM [inhibitor, full curve, poor fit]. For `CC(C)c1nc2ccc(C(=O)NCc3ccc(N(C)C)cc3)cc2o1`, the Potency was inconclusive: 100 µM [inhibitor, partial curve, poor fit]. For `Cc1c(-c2cccc(Cl)c2)nc2ccccc2c1C(=O)OC/C(O)=C(\C#N)c1nc2ccccc2[nH]1`, the Potency was “inactive”. In the case of `C=CC[n+]1c(-c2ccc(C)cc2)csc1NNC(=O)Nc1ccccc1`, the Potency is reported as inconclusive: 56.2 µM [inhibitor, partial curve, poor fit]. With `CCc1ccc2[nH]c(=O)c(CN(CCN(CC)CC)C(=O)Nc3ccccc3OC)cc2c1` the Potency was “inactive”. `Cc1ccc(Cc2c(-c3cccc(Cl)c3)nc3c4ccccc4ccn23)cc1` was tested, and the Potency was inconclusive: 3.98 µM [inhibitor, full curve, poor fit]. `COc1ccc(C)cc1Nc1nc2ccccc2c2nnc(C)n12` was tested, and the Potency was inconclusive: 141 µM [inhibitor, partial curve, poor fit].
